Measurements as given in ChEMBL document CHEMBL2029249, “N-Methyl-3-(tetrahydro-2H-pyran-4-yl)-2,3,4,9-tetrahydro-1H-carbazole-6-carboxamides as a novel class of cannabinoid receptors agonists with low CNS penetration” (Bioorg Med Chem Lett, 2012).
In brackets after ≈: the same amount, converted by molar mass.

Protein sequences, listed by entry. Tags and fused reporters are not part of them. Lines headed by an entry give the natural chain unless they say otherwise; changes in a name come on top.
UniProt Q12809: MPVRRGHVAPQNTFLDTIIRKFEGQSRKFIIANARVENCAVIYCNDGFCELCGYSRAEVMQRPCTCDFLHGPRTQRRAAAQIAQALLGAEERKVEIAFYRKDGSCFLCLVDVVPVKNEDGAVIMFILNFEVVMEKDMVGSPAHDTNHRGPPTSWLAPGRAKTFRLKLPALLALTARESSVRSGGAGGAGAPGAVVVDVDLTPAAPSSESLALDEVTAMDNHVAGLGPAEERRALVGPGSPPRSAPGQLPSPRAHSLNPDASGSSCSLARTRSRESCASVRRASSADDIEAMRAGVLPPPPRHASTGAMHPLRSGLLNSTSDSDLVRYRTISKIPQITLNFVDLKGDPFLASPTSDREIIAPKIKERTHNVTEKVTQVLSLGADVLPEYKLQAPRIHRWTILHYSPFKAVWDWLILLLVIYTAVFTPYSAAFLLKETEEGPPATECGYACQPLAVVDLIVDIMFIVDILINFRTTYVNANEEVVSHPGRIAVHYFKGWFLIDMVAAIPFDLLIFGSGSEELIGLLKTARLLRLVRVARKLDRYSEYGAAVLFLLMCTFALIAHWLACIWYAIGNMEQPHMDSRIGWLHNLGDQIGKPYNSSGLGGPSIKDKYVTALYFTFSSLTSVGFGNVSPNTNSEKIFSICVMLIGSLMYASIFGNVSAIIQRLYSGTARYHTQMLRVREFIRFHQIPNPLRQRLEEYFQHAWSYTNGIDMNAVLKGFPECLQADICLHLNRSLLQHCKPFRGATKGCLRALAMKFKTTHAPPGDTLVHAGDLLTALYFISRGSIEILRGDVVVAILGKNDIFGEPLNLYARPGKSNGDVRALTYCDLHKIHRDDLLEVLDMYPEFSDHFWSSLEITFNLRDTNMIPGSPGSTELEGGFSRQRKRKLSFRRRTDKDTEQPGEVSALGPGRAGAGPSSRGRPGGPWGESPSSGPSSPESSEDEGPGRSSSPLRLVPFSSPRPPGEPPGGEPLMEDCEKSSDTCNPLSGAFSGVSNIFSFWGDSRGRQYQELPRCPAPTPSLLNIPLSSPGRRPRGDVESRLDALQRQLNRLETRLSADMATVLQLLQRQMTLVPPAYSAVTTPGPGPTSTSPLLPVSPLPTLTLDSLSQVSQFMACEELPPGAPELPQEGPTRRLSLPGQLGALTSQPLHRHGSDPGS

How the values were obtained:
[1] = Thermodynamic solubility of the compound at pH 7.4; conditions: buffer
[2] = molecular target: Voltage-gated inwardly rectifying potassium channel KCNH2 (Homo sapiens, UniProt Q12809)

## CCNC(=O)CC[C@@H](CO)N(C)C(=O)c1ccc2c(c1)c1c(n2C)CC[C@@H](C2CCOCC2)C1
[1]
  solubility thermodynamic: 1930 µM (≈ 906 µg/mL)
[2]
  IC50: > 33 µM
